According to PMC3691573:
These are yes or no findings as the source states them, for the method shown. Binding seen in cells or lysates may run through a third protein. Some results given as binding are weak or reduced against the parent protein; the word gives no strength.

The chains behind the UniProt entries cited, without tags or fusion partners.
UniProt Q9WVH4: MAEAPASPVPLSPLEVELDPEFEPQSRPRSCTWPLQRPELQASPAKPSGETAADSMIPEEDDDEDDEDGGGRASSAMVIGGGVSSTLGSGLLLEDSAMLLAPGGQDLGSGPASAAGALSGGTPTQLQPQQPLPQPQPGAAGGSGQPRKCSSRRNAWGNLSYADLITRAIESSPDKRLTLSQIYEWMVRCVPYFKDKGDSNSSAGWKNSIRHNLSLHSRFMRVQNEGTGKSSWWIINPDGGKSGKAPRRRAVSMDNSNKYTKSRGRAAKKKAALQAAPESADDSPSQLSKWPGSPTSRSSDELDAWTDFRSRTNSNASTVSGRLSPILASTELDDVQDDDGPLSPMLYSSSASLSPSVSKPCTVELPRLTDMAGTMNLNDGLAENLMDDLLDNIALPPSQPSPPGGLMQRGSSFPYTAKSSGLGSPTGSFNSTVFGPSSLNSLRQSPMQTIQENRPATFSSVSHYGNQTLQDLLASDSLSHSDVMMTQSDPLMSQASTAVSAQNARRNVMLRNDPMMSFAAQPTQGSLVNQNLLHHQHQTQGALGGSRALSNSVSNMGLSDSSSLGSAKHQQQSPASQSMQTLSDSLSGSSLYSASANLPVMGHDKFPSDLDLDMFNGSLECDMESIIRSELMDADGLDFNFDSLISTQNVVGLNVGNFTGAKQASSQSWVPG
UniProt P11798: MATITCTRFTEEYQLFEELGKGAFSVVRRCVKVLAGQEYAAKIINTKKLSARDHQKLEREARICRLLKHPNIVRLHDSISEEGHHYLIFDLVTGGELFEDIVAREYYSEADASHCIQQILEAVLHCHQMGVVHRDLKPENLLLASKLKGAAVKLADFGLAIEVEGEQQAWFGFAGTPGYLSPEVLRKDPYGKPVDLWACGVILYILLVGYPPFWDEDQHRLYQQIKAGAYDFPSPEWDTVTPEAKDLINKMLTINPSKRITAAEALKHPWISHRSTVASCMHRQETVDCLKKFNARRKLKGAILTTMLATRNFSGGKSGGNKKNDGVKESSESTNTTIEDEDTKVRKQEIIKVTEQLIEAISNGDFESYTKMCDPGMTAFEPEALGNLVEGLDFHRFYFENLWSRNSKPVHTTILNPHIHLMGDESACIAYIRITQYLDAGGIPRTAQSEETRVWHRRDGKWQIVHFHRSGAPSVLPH
UniProt P28652: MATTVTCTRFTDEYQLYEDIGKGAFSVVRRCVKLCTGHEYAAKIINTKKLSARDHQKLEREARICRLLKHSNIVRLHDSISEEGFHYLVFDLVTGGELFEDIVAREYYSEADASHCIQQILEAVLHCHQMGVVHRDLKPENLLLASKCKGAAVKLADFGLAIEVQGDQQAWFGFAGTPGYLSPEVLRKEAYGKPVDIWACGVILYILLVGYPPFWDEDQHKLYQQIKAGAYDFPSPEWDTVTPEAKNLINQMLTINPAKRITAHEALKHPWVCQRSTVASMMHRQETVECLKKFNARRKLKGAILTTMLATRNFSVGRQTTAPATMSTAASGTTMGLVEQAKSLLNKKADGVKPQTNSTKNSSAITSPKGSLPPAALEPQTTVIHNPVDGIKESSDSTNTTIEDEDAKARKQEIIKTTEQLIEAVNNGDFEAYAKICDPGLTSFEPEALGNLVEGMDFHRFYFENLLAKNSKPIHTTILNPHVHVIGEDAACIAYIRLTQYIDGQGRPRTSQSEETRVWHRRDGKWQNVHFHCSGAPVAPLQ

Molecular target: FLAG-tagged mouse FOXO3 (mouse) (UniProt Q9WVH4)
Experiment: co-IP; anti-FLAG IP of FLAG-FOXO3 from transfected HEK293T cells; performed as described (Xie et al., 2012)

Substance | binding
GFP-tagged mouse CAMKII alpha (from UniProt P11798 1-478) (enzyme) | binds
GFP-tagged mouse CAMKII beta (from UniProt P28652 1-542) (enzyme) | binds
